Record: PubChem BioAssay AID1224826 (NIAID, 2016)

Test: 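Regulators of Tlr4 signalling leading to Tnf-alpha expression in macrophages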 (primary screen)
System: RAW264.7 G9 macrophages from mouse bearing reporters for p65 (GFP) and the Tnf promoter (mCherry)
Reagents: siRNA pool against mouse genes, 100 nM
Timing: 16 h of LPS stimulation, after 2 days of siRNA transfection
Conditions: bacterial lipopolysaccharide (Salmonella minnesota R595), 10 ng/ml
Measured: 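Nuclear mCherry signal of the Tnf promoter reporter measured by imaging after background removal, scaled to each plate median and turned into robust z-scores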
Scale: Tnf reporter robust z-score: higher = stronger Tnf promoter reporter signal after LPS; Tnf reporter intensity: higher = stronger Tnf promoter reporter signal
Rule for the call: 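a well counts as active at a score of -1.3 or below (Tlr4 knock-down control median) or above 3 (raised signal); controls and wells holding fewer than 50 cells are excluded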
Meaning of the calls: active = Tnf reporter clearly lowered or raised; inactive = no clear change in Tnf reporter
The whole screen tested about 17,000 reagents; this is a random part of them. About 1,110 of all reagents (6.6%) were called active. 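Active means lowered or raised reporter signal; replicate intensities are raw and not normalised per plate.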 Unmarked entries are inactive.

target | Tnf reporter robust z-score | fewer than 50 cells in well | Tnf reporter intensity, replicate 1 | Tnf reporter intensity, replicate 2
Or7e178 | 0.29 | enough cells in well | 339 | 85.2
Vsx2 | -0.46 | enough cells in well | 150 | 133
Cth | 0.73 | enough cells in well | 252 | 293
Arl13b | 1.29 | enough cells in well | 153 | 247
Pcdhb15 | -0.19 | enough cells in well | 179 | 84.7
Csnk2b | -1.3 (active) | enough cells in well | 115 | 126
Bcas1 | 0.98 | enough cells in well | 160 | 261
Dnttip1 | -0.19 | enough cells in well | 225 | 184
Ints14 | – | fewer than 50 cells per well; well left out of calls | 108 | 47
Ttc12 | – | fewer than 50 cells per well; well left out of calls | 151 | 83.3
Tmeff1 | – | fewer than 50 cells per well; well left out of calls | 83.8 | 66.3
Mrpl27 | 2.16 | enough cells in well | 328 | 219
Klhl10 | 0.31 | enough cells in well | 215 | 144
Sf3a2 | -0.85 | enough cells in well | 55.1 | 70.6
Cmtr2 | 0.56 | enough cells in well | 254 | 236
Crygn | -0.13 | enough cells in well | 126 | 221

Hits, among the entries above:
target | Tnf reporter robust z-score | fewer than 50 cells in well | Tnf reporter intensity, replicate 1 | Tnf reporter intensity, replicate 2
Csnk2b | -1.3 (active) | enough cells in well | 115 | 126

Additional results:
target | Tnf reporter robust z-score | fewer than 50 cells in well | Tnf reporter intensity, replicate 1 | Tnf reporter intensity, replicate 2
N4bp2l2 | 1.53 | enough cells in well | 300 | 330
Klhdc1 | -0.3 | enough cells in well | 179 | 114
Cnpy4 | -0.3 | enough cells in well | 224 | 61.2
Eda2r | -0.17 | enough cells in well | 198 | 239
Vtcn1 | -1.02 | enough cells in well | 151 | 117
Map3k8 | 1.47 | enough cells in well | 187 | 250
Or56a5 | 1.06 | enough cells in well | 131 | 160
Mageb2 | -1.13 | enough cells in well | 129 | 80.3
